Test results taken from PubChem BioAssay AID434947 (Broad Institute, 2010).
Out of some 2,200 compounds screened, about 15 (0.7%) were called active.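 Rule for the calls: active = fitted half-maximal concentration for loss of luminescence signal no more than a set limit of log units above the top tested concentration; inconclusive = flat fit with 30 to 70% signal loss, or invalid fit; inactive = half-maximal concentration above that set limit.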 The list shows a part of the results.

assay: inhibitors of ADP-Glo detection reagents, dose response, artefact control for GSK3beta inhibitor project, biochemical, luminescence, cell-free, homogeneous (AID 434947); conditions: 5 uM ADP;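 note: kinase-free counter screen of ADP-Glo detection reagents for GSK3beta hits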

EC50, inactive:
CCCC(NC(=O)Cc1c(C)c2c(cc(C)c3c(C)coc32)oc1=O)C(=O)O (configuration not stated) > 30 µM
COc1ccc(OC)c(-c2cc(-c3cccnc3)nc(N)c2C#N)c1 > 30 µM
CC(C(=O)NCC1CCCO1)n1cc([N+](=O)[O-])cn1 (configuration not stated) > 30 µM
CCN1CCc2c(C#N)c(N3CCCCC3)nc(N3CCOCC3)c2C1 > 30 µM
Cc1[nH]nc2c1C(c1ccc(F)cc1)C1=C(CC(C)(C)CC1=O)N2 (configuration not stated) > 30 µM
O=[N+]([O-])c1ccccc1S(=O)(=O)N1CCc2ccccc2C1 > 30 µM
CC(=O)c1cccc(Nc2nc(-c3ccccc3)nc3ccccc23)c1 > 30 µM
Cc1cccc(-c2nnc(SCc3ccccc3)o2)c1 > 30 µM
CCCOc1ccc(-c2c(C(=O)N/N=C(\C)c3ccco3)nnn2-c2nonc2N)cc1 > 30 µM
O=C(Cn1c2ccccc2c(=O)c2ccccc21)Nc1ccccc1F > 30 µM
O=C(Nc1ccccc1C(=O)N1CCOCC1)C1CCCO1 (configuration not stated) > 30 µM
CC(C(=O)Nc1cccnc1)n1cc([N+](=O)[O-])cn1 (configuration not stated) > 30 µM
CCC(O)CNc1nc(SC)nc2sc3c(c12)CCN(C)C3 (configuration not stated) > 30 µM
C/C(CC(=O)NCc1ccccc1)=N\NC(=O)c1cnccn1 > 30 µM
CC1Cc2cc(-c3csc(NC(=O)Cc4ccccc4)n3)ccc2N1S(C)(=O)=O (configuration not stated) > 30 µM
CCOC(=O)c1sc(NC(=O)CSc2nnc(C(C)C)n2C)nc1C > 30 µM
O=C(CSCCc1ccccn1)Nc1ccc(Br)cn1 > 30 µM
Cc1c(C(=O)OCCOc2ccccc2)[nH]c2c1C(=O)CCC2 > 30 µM
Cc1ccc(S(=O)(=O)NNC(=O)c2cccc(O)c2)cc1 > 30 µM
N#Cc1c(-c2ccc(F)cc2)nc(-c2ccccc2)[nH]c1=O > 30 µM
COCCOC(=O)C(C#N)c1nc2ccccc2nc1N1CCN(Cc2ccccc2)CC1 (configuration not stated) > 30 µM
Nc1nc(NCc2ccco2)nc(NC2CCCCC2)c1[N+](=O)[O-] > 30 µM
Cc1ccc2cc(NC(=O)c3cccc(F)c3)ccc2n1 > 30 µM
CCOc1ccc(/C=C2\CCCc3c2nc2ccccc2c3C(=O)O)cc1OC > 30 µM
CCOC(=O)c1c(C)[nH]c(C)c1S(=O)(=O)N(C)CC(=O)Nc1ccccc1 > 30 µM
COC(=O)c1ccc2c(=O)n(CC3CCCO3)c(SCC(=O)Nc3ccccc3Cl)nc2c1 (configuration not stated) > 30 µM
CCOC(=O)c1sc(NC(=O)CCN2C(=O)c3cccc([N+](=O)[O-])c3C2=O)c(C(=O)OCC)c1C > 30 µM
Cc1[nH]nc2c1C(c1cccc(O)c1)C1=C(CC(C)(C)CC1=O)N2 (configuration not stated) > 30 µM
COCCNc1nc(SC)nc2sc3c(c12)CCN(C)C3 > 30 µM
CCC(Sc1ccc2nnc(-c3ccc(F)cc3)n2n1)C(=O)O (configuration not stated) > 30 µM
CCCCn1nc(NC(=O)CC(C)C)c2cc3cc(OC)ccc3nc21 > 30 µM
CC1(C)CC2CC(C)(CN2S(=O)(=O)c2ccc(C(=O)Nc3ccc(Cl)c(S(=O)(=O)N4CCOCC4)c3)cc2)C1 (configuration not stated) > 30 µM
CCOC(=O)c1nnn(-c2nonc2N)c1-c1ccc(OCC)cc1 > 30 µM
O=C(Nc1ccc(O)c2c(=O)cc(-c3ccccc3Cl)oc12)c1ccc(Cl)cc1Cl > 30 µM
CC(NCCC(Cc1ccccc1)c1ccco1)c1ccccc1 (configuration not stated) > 30 µM
c1ccc(Nc2nc(-c3ccccc3)nc3ccccc23)cc1 > 30 µM
Fc1ccccc1Nc1nc(-c2ccncc2)nc2ccccc12 > 30 µM
O=C(CSc1nnc(-c2ccncc2)o1)Oc1ccccc1 > 30 µM
CC(=O)Nc1cc(-c2ccc(Cl)cc2)[nH]n1 > 30 µM
Cc1nc(Nc2ccccc2)sc1C(=O)c1ccc(F)cc1 > 30 µM
CCC(C)NC(=O)CNC(=S)N(CCCN1CCOCC1)Cc1cccs1 (configuration not stated) > 30 µM
Nc1nc(NCC2CCCO2)nc(Nc2cccc(F)c2)c1[N+](=O)[O-] (configuration not stated) > 30 µM
COc1ccc(-c2nn(-c3ccccc3)cc2C#N)cc1 > 30 µM
CCOc1ccc2nc(NC(=O)CSc3nc4cccnc4n3C)sc2c1 > 30 µM
Cc1c(NC(=O)C(C)n2cc([N+](=O)[O-])cn2)c(=O)n(-c2ccccc2)n1C (configuration not stated) > 30 µM
O=C(N/N=C/c1cc(Br)ccc1O)c1ccccc1Cl > 30 µM
COc1cc(/C=C2/C(=O)NN(c3cccc(Cl)c3)C2=O)cc(Br)c1O > 30 µM
O=C(O)c1cc(-c2ccc(/C=N/N3C(=O)C4C5C=CC(CC5)C4C3=O)o2)ccc1Cl (configuration not stated) > 30 µM
CC(C)(C)C1CCc2onc(C(=O)Nc3ccc4c(c3)OCO4)c2C1 (configuration not stated) > 30 µM
CCSc1nc(N)c2c3c(sc2n1)CN(C)CC3 > 30 µM
CC(C)(C)N=C1NN=C(c2ccc(Cl)cc2)CS1 > 30 µM
O=C1CCCc2oc3ccc(O)cc3c21 > 30 µM
O=C(O)c1cc(N/N=C/c2ccc(-c3ccc(F)cc3)o2)ccc1Cl > 30 µM
Nc1nonc1-n1nnc(C(=O)N/N=C/c2ccc(OCc3ccccc3)cc2)c1CN1CCCCC1 > 30 µM
Cc1[nH]nc2c1C(c1ccc(O)cc1)C1=C(CC(C)(C)CC1=O)N2 (configuration not stated) > 30 µM
O=c1cc(-c2ccc(O)c(O)c2)oc2cc(O)cc(O)c12 > 30 µM
O=C(O)/C=C/C(=O)NCC1CCC(CNC(=O)/C=C/C(=O)O)CC1 (configuration not stated) > 30 µM
Nc1nonc1-n1nnc(C(=O)N/N=C/c2ccccc2F)c1CN1CCOCC1 > 30 µM
COc1ccccc1Nc1nc(NCCCN(C)C)nc(N)c1[N+](=O)[O-] > 30 µM
CCNc1nc(SCC(N)=O)nc2sc3c(c12)CCN(C)C3 > 30 µM
CCN1CCN(c2c(C(=O)c3ccc(OC)cc3)cnc3ccccc23)CC1 > 30 µM
O=C(CCS(=O)(=O)c1ccc(Br)cc1)Nc1ccc(Cl)cc1F > 30 µM
CCCCCc1cc(O)c2c(C)cc(=O)oc2c1 > 30 µM
O=C(Nc1ccccc1)C(=O)Nc1ccccn1 > 30 µM
O/N=C/c1cn(-c2ccccc2)nc1-c1ccc2c(c1)OCCO2 > 30 µM
COc1ccc2c(c1)-c1c(sn(-c3ccc(OC)c(OC)c3)c1=S)C(C)(C)N2 > 30 µM
Cn1cc(/C=N/NC(=O)COc2ccccc2[N+](=O)[O-])c2ccccc21 > 30 µM
Cc1nc(NCCCn2ccnc2)c2oc3ccccc3c2n1 > 30 µM
COc1cc(/C=C2\SC(=Nc3ccc(O)cc3)NC2=O)cc(OC)c1O > 30 µM
Cc1ccc(Nc2nc(NCC3CCCO3)nc(N)c2[N+](=O)[O-])cc1 (configuration not stated) > 30 µM
CC/C(=N\NC(=O)CSCc1ccccc1Cl)c1ccc2c(c1)OCCO2 > 30 µM
CN1CCN(CCNC(=O)Nc2ccccc2[N+](=O)[O-])CC1 > 30 µM
C(=N\Nc1nccc(-c2cccnc2)n1)/c1ccccc1 > 30 µM
Cc1c(O)ccc(C(=O)CN2CCN(c3ccc(F)cc3)CC2)c1O > 30 µM
Cc1ccnc(NC(=O)CCC(=O)N(CC(=O)NCCc2ccccc2)Cc2cccs2)c1 > 30 µM
Cc1csc(NC(=O)CN2C(=O)c3ccccc3C2=O)c1C(N)=O > 30 µM
NC(=S)N/N=C/c1cn(CCC(=O)O)nc1-c1cccc(Br)c1 > 30 µM
COc1cccc2c1cc1c(=O)n(CC(=O)N3CCCCCC3)nc(C)n12 > 30 µM
Cc1oc2c(CN(C)C)c(O)ccc2c(=O)c1-c1ccc2ccccc2n1 > 30 µM
COc1cc(NC(=S)Nc2ccccn2)c(OC)cc1Cl > 30 µM
O=C(O)CSCC(=O)NCc1c(Cl)cccc1Oc1ccccc1 > 30 µM
Cc1coc2cc3oc(=O)c(CCC(=O)NCCCN4CCCC4=O)c(C)c3cc12 > 30 µM
Clc1nccc(NCc2ccccc2)n1 > 30 µM
O=C(CN1C(=O)CCC1=O)Nc1cccc2c1C(=O)NC2=O > 30 µM
COc1cccc(C(=O)c2sc(NC(C)C)nc2N)c1 > 30 µM
COCCn1nnnc1C(c1cc2cc(C)ccc2[nH]c1=O)N1CCc2ccccc21 (configuration not stated) > 30 µM
COc1cc(/C=N\NC(=O)c2ccc(Cl)cc2)ccc1Oc1ccc([N+](=O)[O-])cn1 > 30 µM
COc1ccc(Nc2nc(N)c([N+](=O)[O-])c(NCc3ccccc3)n2)cc1 > 30 µM
Fc1cccc(Nc2ncnc3[nH]ncc23)c1 > 30 µM
COc1ccc(-c2ccc3c(N)c(C(=O)c4cccc(OC)c4)sc3n2)cc1 > 30 µM
CCOC(=O)/C(C#N)=C/c1cn(CCC(=O)O)nc1-c1cccc(Cl)c1 > 30 µM
COc1ccc(N2CC(C(=O)Nc3cc(C)ccn3)CC2=O)cc1 (configuration not stated) > 30 µM

A draw from above in order of SMILES length, smallest number first.
EC50, inactive:
COCCNc1nc(SC)nc2sc3c(c12)CCN(C)C3 > 30 µM
Cc1ccc(S(=O)(=O)NNC(=O)c2cccc(O)c2)cc1 > 30 µM
CC/C(=N\NC(=O)CSCc1ccccc1Cl)c1ccc2c(c1)OCCO2 > 30 µM
COc1cccc2c1cc1c(=O)n(CC(=O)N3CCCCCC3)nc(C)n12 > 30 µM
O=C(O)/C=C/C(=O)NCC1CCC(CNC(=O)/C=C/C(=O)O)CC1 (configuration not stated) > 30 µM
Cc1[nH]nc2c1C(c1ccc(O)cc1)C1=C(CC(C)(C)CC1=O)N2 (configuration not stated) > 30 µM
